Measured values published in the supplement of paper PMC8728848.
The list shows a part of the results.

Columns and labels:
Experiment in all cases: glycan array binding signal (z-score within array); higher = stronger binding
Details in all cases: glycan notation: IUPAC condensed, linker removed
Glc(b1-6)Glc = molecular target: Glc(b1-6)Glc
Outline: (§1)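 The binding signal is a Z-score computed within each array. Data were drawn from 3228 arrays in the Consortium for Functional Glycomics database, restricted to those with a known protein sequence. Scores were averaged over arrays of the same protein sequence at different concentrations or buffers, and over linkers, and negative values can be taken as non-binding.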

GlcA(b1-3)Gal = molecular target: GlcA(b1-3)Gal
Outline: as §1

GlcA(b1-3)GlcNAc = molecular target: GlcA(b1-3)GlcNAc
Outline: as §1

GlcA(b1-6)Gal = molecular target: GlcA(b1-6)Gal
Outline: as §1

[1] = molecular target: GlcA3S(b1-3)Gal(b1-4)GlcNAc(b1-2)Man
Outline: as §1

[2] = molecular target: GlcA3S(b1-3)Gal(b1-4)GlcNAc(b1-3)Gal(b1-4)Glc
Outline: as §1

[3] = molecular target: GlcNAc(a1-3)Gal(b1-4)GlcNAc
Outline: as §1

[4] = molecular target: GlcNAc(a1-4)Gal(b1-3)GlcNAc
Outline: as §1

[5] = molecular target: GlcNAc(a1-4)Gal(b1-4)GalNAc
Outline: as §1

[6] = molecular target: GlcNAc(a1-4)Gal(b1-4)GlcNAc
Outline: as §1

[7] = molecular target: GlcNAc(a1-4)Gal(b1-4)GlcNAc(b1-3)Gal(b1-4)Glc
Outline: as §1

[8] = molecular target: GlcNAc(a1-4)Gal(b1-4)GlcNAc(b1-3)Gal(b1-4)GlcNAc
Outline: as §1

[9] = molecular target: GlcNAc(a1-4)Gal(b1-4)GlcNAc(b1-3)Gal(b1-4)GlcNAc(b1-3)Gal(b1-4)GlcNAc
Outline: as §1

[10] = molecular target: GlcNAc(a1-4)Gal(b1-4)GlcNAc(b1-3)Gal(b1-4)[Fuc(a1-3)]GlcNAc(b1-3)Gal(b1-4)[Fuc(a1-3)]GlcNAc
Outline: as §1

[11] = molecular target: GlcNAc(a1-6)Gal(b1-4)GlcNAc
Outline: as §1

[12] = molecular target: GlcNAc(b1-2)Gal(b1-3)GalNAc
Outline: as §1

[13] = molecular target: GlcNAc(b1-2)Man(a1-3)[GlcNAc(b1-2)Man(a1-6)]Man(b1-4)GlcNAc(b1-4)GlcNAc
Outline: as §1

[14] = molecular target: GlcNAc(b1-2)Man(a1-3)[GlcNAc(b1-2)Man(a1-6)]Man(b1-4)GlcNAc(b1-4)[Fuc(a1-6)]GlcNAc
Outline: as §1

[15] = molecular target: GlcNAc(b1-2)Man(a1-3)[GlcNAc(b1-4)][GlcNAc(b1-2)Man(a1-6)]Man(b1-4)GlcNAc(b1-4)GlcNAc
Outline: as §1

[16] = molecular target: GlcNAc(b1-2)Man(a1-3)[GlcNAc(b1-4)][GlcNAc(b1-2)Man(a1-6)]Man(b1-4)GlcNAc(b1-4)[Fuc(a1-6)]GlcNAc
Outline: as §1

[17] = molecular target: GlcNAc(b1-2)[GlcNAc(b1-4)]Man(a1-3)[GlcNAc(b1-2)Man(a1-6)]Man(b1-4)GlcNAc(b1-4)GlcNAc
Outline: as §1

[18] = molecular target: GlcNAc(b1-2)[GlcNAc(b1-4)]Man(a1-3)[GlcNAc(b1-4)][GlcNAc(b1-2)Man(a1-6)]Man(b1-4)GlcNAc(b1-4)GlcNAc
Outline: as §1

[19] = molecular target: GlcNAc(b1-2)[GlcNAc(b1-4)]Man(a1-3)[GlcNAc(b1-4)][GlcNAc(b1-2)[GlcNAc(b1-6)]Man(a1-6)]Man(b1-4)GlcNAc(b1-4)GlcNAc
Outline: as §1

[20] = molecular target: GlcNAc(b1-2)[GlcNAc(b1-4)]Man(a1-3)[GlcNAc(b1-4)][GlcNAc(b1-2)[GlcNAc(b1-6)]Man(a1-6)]Man(b1-4)GlcNAc(b1-4)[Fuc(a1-6)]GlcNAc
Outline: as §1

[21] = molecular target: GlcNAc(b1-2)[GlcNAc(b1-6)]Man(a1-6)[GlcNAc(b1-2)Man(a1-3)]Man(b1-4)GlcNAc(b1-4)GlcNAc
Outline: as §1

[22] = molecular target: GlcNAc(b1-2)[GlcNAc(b1-6)]Man(a1-6)[GlcNAc(b1-2)Man(a1-3)]Man(b1-4)GlcNAc(b1-4)[Fuc(a1-6)]GlcNAc
Outline: as §1

[23] = molecular target: GlcNAc(b1-2)[GlcNAc(b1-6)]Man(a1-6)[GlcNAc(b1-4)][GlcNAc(b1-2)Man(a1-3)]Man(b1-4)GlcNAc(b1-4)GlcNAc
Outline: as §1

GlcNAc(b1-3)Fuc = molecular target: GlcNAc(b1-3)Fuc
Outline: as §1

GlcNAc(b1-3)Gal = molecular target: GlcNAc(b1-3)Gal
Outline: as §1

[24] = molecular target: GlcNAc(b1-3)Gal(b1-3)GalNAc
Outline: as §1

GlcNAc(b1-3)Gal(b1-4)Glc = molecular target: GlcNAc(b1-3)Gal(b1-4)Glc
Outline: as §1

[25] = molecular target: GlcNAc(b1-3)Gal(b1-4)GlcNAc
Outline: as §1

[26] = molecular target: GlcNAc(b1-3)Gal(b1-4)GlcNAc(b1-2)Man(a1-3)[GlcNAc(b1-3)Gal(b1-4)GlcNAc(b1-2)Man(a1-6)]Man(b1-4)GlcNAc(b1-4)GlcNAc
Outline: as §1

[27] = molecular target: GlcNAc(b1-3)Gal(b1-4)GlcNAc(b1-2)Man(a1-3)[GlcNAc(b1-3)Gal(b1-4)GlcNAc(b1-2)Man(a1-6)]Man(b1-4)GlcNAc(b1-4)[Fuc(a1-6)]GlcNAc
Outline: as §1

[28] = molecular target: GlcNAc(b1-3)Gal(b1-4)GlcNAc(b1-2)[GlcNAc(b1-3)Gal(b1-4)GlcNAc(b1-6)]Man(a1-6)[GlcNAc(b1-3)Gal(b1-4)GlcNAc(b1-2)Man(a1-3)]Man(b1-4)GlcNAc(b1-4)GlcNAc
Outline: as §1

[29] = molecular target: GlcNAc(b1-3)Gal(b1-4)GlcNAc(b1-3)Gal(b1-4)GlcNAc
Outline: as §1

[30] = molecular target: GlcNAc(b1-3)Gal(b1-4)GlcNAc(b1-3)Gal(b1-4)GlcNAc(b1-2)Man(a1-3)[GlcNAc(b1-3)Gal(b1-4)GlcNAc(b1-3)Gal(b1-4)GlcNAc(b1-2)Man(a1-6)]Man(b1-4)GlcNAc(b1-4)GlcNAc
Outline: as §1

B1: his-Lectin-24A (Drosophila melanogaster) (protein)
chain: MFRLSVLVLNLLLVSHEFSAGTAKIEIQPLPALCNGYCFPTLKPVMEYVAIHQDKWNTCTEILANEARKDQIQLNIQLDALKADVSNIKASQLSKDEKLDRMEREQFAMHESLETINRYLTVKLDRTKLQLEAIKNTMDYMKAQMDGYFSAINGVQCLQPGFEKIGDRYFYIEEDVELNWLDAQAKCRRMGGHLASIKTKQEFDAIVEKLDDSKSYFLGVNENTKTGDFVSAASGKSCLYHEWGPGEPHHNNDQERCVSILRKLMHVGNCTYEKRFICQYGI
Glc(b1-6)Glc
  glycan array binding signal (z-score): -0.899
GlcA(b1-3)Gal
  glycan array binding signal (z-score): 0.317
GlcA(b1-3)GlcNAc
  glycan array binding signal (z-score): -0.583
GlcA(b1-6)Gal
  glycan array binding signal (z-score): 0.235
[1]
  glycan array binding signal (z-score): 0.152
[2]
  glycan array binding signal (z-score): -1.2
[3]
  glycan array binding signal (z-score): -0.868
[4]
  glycan array binding signal (z-score): -0.494
[5]
  glycan array binding signal (z-score): -0.345
[6]
  glycan array binding signal (z-score): -0.489
[7]
  glycan array binding signal (z-score): 2.7
[8]
  glycan array binding signal (z-score): 1.25
[9]
  glycan array binding signal (z-score): -1.01
[10]
  glycan array binding signal (z-score): 1.91
[11]
  glycan array binding signal (z-score): 1.35
[12]
  glycan array binding signal (z-score): -0.893
[13]
  glycan array binding signal (z-score): -0.233
[14]
  glycan array binding signal (z-score): 0.72
[15]
  glycan array binding signal (z-score): -1.32
[16]
  glycan array binding signal (z-score): -0.9
[17]
  glycan array binding signal (z-score): -0.675
[18]
  glycan array binding signal (z-score): -1.06
[19]
  glycan array binding signal (z-score): 0.555
[20]
  glycan array binding signal (z-score): 2.05
[21]
  glycan array binding signal (z-score): -0.588
[22]
  glycan array binding signal (z-score): 1.69
[23]
  glycan array binding signal (z-score): -0.763
GlcNAc(b1-3)Fuc
  glycan array binding signal (z-score): -0.062
GlcNAc(b1-3)Gal
  glycan array binding signal (z-score): -0.752
[24]
  glycan array binding signal (z-score): -0.884
GlcNAc(b1-3)Gal(b1-4)Glc
  glycan array binding signal (z-score): 0.074
[25]
  glycan array binding signal (z-score): -0.137
[26]
  glycan array binding signal (z-score): 0.459
[27]
  glycan array binding signal (z-score): 0.264
[28]
  glycan array binding signal (z-score): -0.086
[29]
  glycan array binding signal (z-score): -0.845
[30]
  glycan array binding signal (z-score): -1
